From ChEMBL document CHEMBL3988442, “University of Dundee, Small-Polar-MMV Screening Library” (2021).

The chains behind the UniProt entries cited, without tags or fusion partners. Residues count along the entry.
UniProt I6X8D2, whole entry: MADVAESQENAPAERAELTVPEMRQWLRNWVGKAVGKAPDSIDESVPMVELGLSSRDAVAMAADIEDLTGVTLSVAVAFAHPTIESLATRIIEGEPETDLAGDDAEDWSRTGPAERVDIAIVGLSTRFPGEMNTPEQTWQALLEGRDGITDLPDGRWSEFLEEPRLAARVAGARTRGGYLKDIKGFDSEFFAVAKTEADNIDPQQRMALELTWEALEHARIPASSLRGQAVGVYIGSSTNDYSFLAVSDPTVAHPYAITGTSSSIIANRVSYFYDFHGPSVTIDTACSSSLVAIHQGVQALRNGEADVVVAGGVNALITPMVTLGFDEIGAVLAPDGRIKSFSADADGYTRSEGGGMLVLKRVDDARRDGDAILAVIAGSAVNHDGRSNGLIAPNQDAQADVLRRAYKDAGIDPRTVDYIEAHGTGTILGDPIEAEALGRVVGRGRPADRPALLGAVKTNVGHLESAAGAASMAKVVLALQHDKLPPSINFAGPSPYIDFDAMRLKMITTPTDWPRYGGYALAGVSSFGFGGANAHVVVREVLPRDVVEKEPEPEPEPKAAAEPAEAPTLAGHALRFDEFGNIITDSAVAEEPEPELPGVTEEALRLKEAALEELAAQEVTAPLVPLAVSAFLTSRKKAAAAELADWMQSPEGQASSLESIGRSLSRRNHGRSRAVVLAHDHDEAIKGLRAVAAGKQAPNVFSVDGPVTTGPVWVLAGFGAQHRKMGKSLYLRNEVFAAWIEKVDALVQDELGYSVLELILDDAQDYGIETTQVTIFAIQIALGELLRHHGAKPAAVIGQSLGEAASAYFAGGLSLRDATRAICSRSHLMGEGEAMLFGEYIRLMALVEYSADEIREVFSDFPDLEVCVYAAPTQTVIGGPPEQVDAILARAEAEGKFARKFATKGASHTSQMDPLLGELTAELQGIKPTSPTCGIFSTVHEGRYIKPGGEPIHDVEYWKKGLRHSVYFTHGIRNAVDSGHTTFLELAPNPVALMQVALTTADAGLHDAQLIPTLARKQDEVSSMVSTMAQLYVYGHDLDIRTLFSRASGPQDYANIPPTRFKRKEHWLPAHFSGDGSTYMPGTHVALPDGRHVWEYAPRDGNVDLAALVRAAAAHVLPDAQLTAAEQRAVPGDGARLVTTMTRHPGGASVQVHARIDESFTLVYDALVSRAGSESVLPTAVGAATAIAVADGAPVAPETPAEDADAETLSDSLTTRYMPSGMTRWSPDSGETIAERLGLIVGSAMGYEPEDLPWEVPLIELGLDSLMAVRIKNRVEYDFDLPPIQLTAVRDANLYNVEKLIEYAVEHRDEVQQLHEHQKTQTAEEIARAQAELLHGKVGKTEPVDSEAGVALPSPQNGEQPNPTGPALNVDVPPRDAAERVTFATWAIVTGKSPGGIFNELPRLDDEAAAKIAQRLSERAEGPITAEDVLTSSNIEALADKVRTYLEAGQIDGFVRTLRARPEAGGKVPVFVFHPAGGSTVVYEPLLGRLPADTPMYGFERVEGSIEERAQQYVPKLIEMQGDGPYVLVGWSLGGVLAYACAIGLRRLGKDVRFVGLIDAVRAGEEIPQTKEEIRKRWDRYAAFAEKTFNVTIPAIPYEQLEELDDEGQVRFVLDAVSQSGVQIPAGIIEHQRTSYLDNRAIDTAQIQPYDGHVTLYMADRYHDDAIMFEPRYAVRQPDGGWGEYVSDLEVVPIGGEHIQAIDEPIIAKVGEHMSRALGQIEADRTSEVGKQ
UniProt P9WFT3, whole entry: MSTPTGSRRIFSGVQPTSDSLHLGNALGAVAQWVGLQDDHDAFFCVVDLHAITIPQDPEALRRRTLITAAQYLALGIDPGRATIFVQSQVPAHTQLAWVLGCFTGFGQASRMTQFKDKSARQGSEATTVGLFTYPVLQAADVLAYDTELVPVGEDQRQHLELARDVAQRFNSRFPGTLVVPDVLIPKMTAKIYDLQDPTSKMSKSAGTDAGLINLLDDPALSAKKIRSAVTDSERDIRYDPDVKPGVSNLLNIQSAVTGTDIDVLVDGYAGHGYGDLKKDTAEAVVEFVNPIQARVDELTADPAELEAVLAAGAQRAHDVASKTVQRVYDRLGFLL
UniProt P9WNZ1, whole entry: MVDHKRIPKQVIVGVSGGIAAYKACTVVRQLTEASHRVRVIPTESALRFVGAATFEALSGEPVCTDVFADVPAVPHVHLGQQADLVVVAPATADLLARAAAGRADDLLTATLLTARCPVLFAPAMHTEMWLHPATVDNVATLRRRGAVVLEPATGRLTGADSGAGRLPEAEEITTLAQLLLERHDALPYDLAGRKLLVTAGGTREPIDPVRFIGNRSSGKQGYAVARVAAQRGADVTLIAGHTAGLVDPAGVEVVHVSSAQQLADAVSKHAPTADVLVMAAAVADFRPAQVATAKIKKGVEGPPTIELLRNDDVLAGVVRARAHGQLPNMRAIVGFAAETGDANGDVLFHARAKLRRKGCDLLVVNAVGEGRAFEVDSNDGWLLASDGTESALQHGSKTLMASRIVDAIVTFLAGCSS
UniProt Q8IDJ8, 1-583: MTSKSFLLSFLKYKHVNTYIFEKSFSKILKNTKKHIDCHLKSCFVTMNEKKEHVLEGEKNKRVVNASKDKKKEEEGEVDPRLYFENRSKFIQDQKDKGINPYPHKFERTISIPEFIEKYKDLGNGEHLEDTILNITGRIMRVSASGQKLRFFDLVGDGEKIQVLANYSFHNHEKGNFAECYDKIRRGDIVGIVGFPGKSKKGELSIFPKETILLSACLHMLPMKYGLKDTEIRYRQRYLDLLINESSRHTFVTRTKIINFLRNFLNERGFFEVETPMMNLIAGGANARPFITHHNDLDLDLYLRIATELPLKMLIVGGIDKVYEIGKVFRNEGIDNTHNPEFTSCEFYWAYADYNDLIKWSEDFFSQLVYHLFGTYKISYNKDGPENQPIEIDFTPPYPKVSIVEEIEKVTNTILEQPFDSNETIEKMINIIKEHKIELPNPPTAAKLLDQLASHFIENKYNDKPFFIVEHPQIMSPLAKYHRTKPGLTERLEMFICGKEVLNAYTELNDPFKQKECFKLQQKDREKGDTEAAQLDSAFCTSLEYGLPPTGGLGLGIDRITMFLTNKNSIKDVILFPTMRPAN

A: 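Polyketide synthase Pks13, Mycobacterium tuberculosis (UniProt I6X8D2). Enzyme assay of the thioesterase domain of polyketide synthase 13; the read-out is not stated. Compounds at 30 µM. The record gives no direction; the compounds picked for IC50 retests had high values, so higher reads as stronger inhibition. About 67,000 compounds were tested under these conditions; 0.46% (about 300) showed 50% or more at least once.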
B: 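Enzyme assay of tryptophanyl-tRNA synthetase; the read-out is not stated. Target: Tryptophan-tRNA ligase, Mycobacterium tuberculosis (UniProt P9WFT3). Concentration: 10 µM. Higher most likely means stronger inhibition; the record gives no direction and few retests gave an IC50. Size under these conditions: about 65,000 compounds, about 64 of them at 50% or above in at least one test.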
C: 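Enzyme assay of CoaBC with a phosphate dye (Biomol Green) read at 650 nm. Target: Coenzyme A biosynthesis protein CoaBC, Mycobacterium tuberculosis (UniProt P9WNZ1). Compounds at 30 µM. Direction is inferred from only a few compounds that gave an IC50; most scored high, so higher reads as stronger inhibition. Most strong results did not repeat in a second test. Size under these conditions: about 67,000 compounds, about 40 of them at 50% or above in at least one test.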
D: 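Lysine-tRNA ligase, Plasmodium falciparum 3D7 (UniProt Q8IDJ8). Enzyme assay of the cytosolic lysyl-tRNA synthetase in 384-well plates, read by luminescence. Compounds at 30 µM. Direction is inferred from only a few compounds that gave an IC50; most scored high, so higher reads as stronger inhibition. Of about 69,000 compounds tested this way, about 49 (0.071%) reached 50% or more in at least one test.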

Results are given as percent effect. The record does not define 0% and 100%; most values in the screen are far below 50% and negative numbers occur (in some assays of this library far below -100). Compounds were drawn at random from those tested, without regard to their results. A dash means the value is not listed here; it may have been measured.

structure | A | B | C | D
CC(Cc1ccco1)NC(=O)NCc1ncnn1C (configuration not stated) | - | 5.348 | -1.499 | -2.83
Cc1nnnn1-c1cc(NCc2cc(C#N)ccc2F)ccc1F | 7.318 | 1.93 | -1.145 | 2.08
O[C@H]1Cc2ccccc2[C@H]1Nc1ncccc1C(F)(F)F | -6.65 | 4.224 | -4.327 | 1.853
CCc1nc(CN2CCCN(c3nc4ccccc4o3)CC2)no1 | - | 0.9114 | -1.818 | -0.9192
COc1ccc(Cl)cc1NCc1nc2[nH]c(C)c(C)c(=O)n2n1 | -18.47 | -0.6221 | -1.09 | 2.781
CN(C)CCNC(=O)c1ccc(S(=O)(=O)N[C@@H]2CCNC2)cc1 | 2.849 | 8.566 | 1.489 | 22.28
O=C1CCSCC(C(=O)N2CCCCC2)N1 (configuration not stated) | 2.403 | 5.033 | 1.272 | 3.1
CCCc1nnsc1C(=O)NCC1CCN(c2ccccn2)CC1 | -4.575 | 1.782 | 13.86 | -0.2434
Cc1csc(CNC(=O)N(C)Cc2cnn(C)c2)n1 | -13.15 | 3.401 | 15.18 | 5.456
CC1c2ncc(CN3CCN(C)CC3)n2CCN1Cc1ccccn1 (configuration not stated) | 0.07972 | 3.176 | -4.198 | 8.705
Clc1cc(CN2CCCC2Cn2cncn2)c2ncccc2c1 (configuration not stated) | -13.73 | -2.041 | 7.757 | 2.99
O=c1cc(-c2ccncc2)nc(-c2ccc(CN3CC[C@@H](O)C3)cc2)[nH]1 | 1.346 | -1.374 | 3.856 | 5.873
CC(C)c1cc(C(=O)O)nc2[nH]c(=O)[nH]c(=O)c12 | 8.844 | 2.524 | 0.4819 | -1.51
CN1CCCN(c2cnn(Cc3ccncc3)c(=O)c2)CC1 | -1.06 | -1.591 | 1.485 | 0.4121
OC(CN(Cc1ccccc1)Cc1ccncc1)c1ccco1 (configuration not stated) | -5.415 | -4.722 | 8.065 | 9.06
CCc1ncc(CNC2CC(=O)N(CCc3cccc(Cl)c3)C2)cn1 (configuration not stated) | - | 2.056 | 14.84 | 2.938
CC(C)c1nnc2n1CCN(C(C)c1nnc(-c3cccs3)o1)C2 (configuration not stated) | 1.795 | -3.602 | -0.8403 | -0.5955
Cc1ccnn1CC(=O)N(C)Cc1ccc(-n2cccn2)cc1 | 1.158 | -1.4 | 1.09 | -3.401
Cc1ccc(C(=O)O)cc1S(=O)(=O)N(C)c1cccc(C#N)c1 | -5.54 | -6.495 | 7.265 | 3.948
CCCC1(C(=O)O)CCCN(C(=O)c2cc(Cl)ccc2F)C1 (configuration not stated) | -22.71 | 5.556 | 1.901 | 7.632
CC(C)Cc1ncc2c(n1)CN(c1nc3ccccc3cc1CO)C2 | -8.912 | -1.426 | 8.955 | 3.898
OCC1(O)CCCN(Cc2noc(-c3ccccc3)n2)C1 (configuration not stated) | -27.94 | -2.349 | 7.407 | 3.47
CCN1C(=O)C[C@@H]2[C@@H]1CCN2S(=O)(=O)Cc1ccc(C)cc1 | 16.36 | -6.456 | -2.096 | 3.955
CCC(C)(CC(=O)OC)NCc1noc(C)n1 (configuration not stated) | -625.3 | 0.9046 | 1.595 | 4.227
CN(CC1CCOC1)c1ncc(Br)cn1 (configuration not stated) | -13.48 | -0.9032 | 0.3367 | 0.3285
COC(=O)c1cc(C(=O)N2CCC(OC)CC2)n(-c2ccccc2)n1 | -9.482 | -4.206 | 7.224 | -0.203
N#Cc1cccnc1OC1CCNCC1 | -16.32 | -3.214 | -2.043 | 0.2604
Cc1ncsc1CN1C[C@@H]2COC[C@]2(C(=O)NC2CC(F)(F)C2)C1 | -9.917 | -0.2453 | 3.695 | 3.346
COC(=O)c1sccc1S(=O)(=O)N1CCC(Oc2cnccn2)CC1 | -4.333 | 3.597 | -0.8739 | 1.051
CN(CCc1ccccn1)S(=O)(=O)N1CCCC1c1ccco1 (configuration not stated) | -16.39 | -2.624 | 12.14 | 4.16
C[C@@H]1C[C@H]2CN(S(=O)(=O)c3ccc(F)cc3)C[C@H]2O1 | -32.42 | -1.163 | 2.703 | 2.391
CCOc1ncccc1CNCc1c(C(C)C)nn(C)c1N(C)C | -5.916 | 18.22 | 13.04 | -3.843
CCc1nc2c(c(NC3CC3)n1)CCN(C(=O)N1CCN(C)CC1)CC2 | 1.252 | 0.7322 | 5.622 | -1.774
N#CCCN(CCC#N)C(=O)c1ccc(COc2ccccc2C#N)o1 | -29.87 | 10.15 | 2.893 | -0.1244
O=C1CO[C@H]2CN(Cc3c[nH]c4ccccc34)C[C@H]2N1 | -15.23 | 5.949 | 3.386 | 1.725
CCC(O)CN1CCN(C(=O)Cc2c(C)nc(C)[nH]c2=O)CC1 (configuration not stated) | 15.15 | -2.726 | -3.165 | 8.077
O=C(NC1CCC(C(=O)N2CCSCC2)CC1)N1CCC1 (configuration not stated) | -15.62 | 3.436 | 3.776 | 5.283
Cc1n[nH]c(C)c1C1COCCN1C(=O)Cc1ccccc1F (configuration not stated) | -2.107 | -0.4079 | 3.924 | -0.153
CNC(=O)CN1CCCC(Cc2ccccc2OC)C1 (configuration not stated) | -23.88 | 7.73 | 4.104 | 4.416
NC(=O)c1cn[nH]c1C1CCCN1C(=O)c1ccccc1 (configuration not stated) | -30.16 | -5.231 | 2.375 | 4.576
CC(NC(=O)C1=NN(C)C(=O)CC1)c1cccc(Cl)c1 (configuration not stated) | 2.069 | 7.584 | -1.152 | 4.895
COc1ccc(C2CCCCCN2S(N)(=O)=O)cc1 (configuration not stated) | -24.78 | 3.154 | 2.641 | -0.6781
Cc1cc(C)nc(NCCC(=O)NCCn2ccnc2C)n1 | -28.61 | 1.057 | -2.184 | -0.07709
Cc1n[nH]c(C2CN(C(=O)CCc3ccco3)CCO2)n1 (configuration not stated) | -40.05 | -1.377 | 5.263 | 7.092
CN(C)c1cc(CNC(=O)c2ccc(F)cc2)ccn1 | -7.017 | -2.855 | 1.818 | 0.1125
COC1CCCN(C(=O)c2sc(CC(C)C)nc2C)C1 (configuration not stated) | -11.75 | -4.489 | 2.789 | -1.758
Cc1ncsc1CCN(C)C(=O)CN1CCOc2ccccc2C1 | -24.1 | -3.073 | 14.29 | -0.2823
Cn1ccnc1-c1ccc(NCc2cn3c(n2)SCC3)nn1 | -14.81 | -1.713 | 17.67 | 2.104
COc1ccccc1CC(=O)NS(=O)(=O)c1ccc(C#N)cc1 | -3.267 | -8.122 | -0.4779 | -0.05533
CN(Cc1ccc(F)cc1)CC1(O)CCN(C(=O)c2ccsc2)C1 (configuration not stated) | -30.38 | - | -3.431 | -0.5274
CCn1c(C)cc(C(=O)N2CCC(NC(=O)c3ccc(C)o3)CC2)c1C | -4.325 | 3.599 | -0.6402 | -4.182
CC(C)C[C@H](N)COc1cccc(F)c1Oc1ccccc1 | 4.595 | 27.55 | 5.583 | -0.2873
Cc1cnn(CC2CCCN2C(=O)c2cc(C)no2)c1 (configuration not stated) | -12.35 | -1.657 | -0.1669 | 1.388
COCc1cnc2n1CCN(S(=O)(=O)c1c(C)nn(C)c1C)C2C (configuration not stated) | 19.16 | 2.265 | - | -2.98